# Experimental data as given in article PMC11984406.
# The chains behind the UniProt entries cited, without tags or fusion partners.
# UniProt P35222: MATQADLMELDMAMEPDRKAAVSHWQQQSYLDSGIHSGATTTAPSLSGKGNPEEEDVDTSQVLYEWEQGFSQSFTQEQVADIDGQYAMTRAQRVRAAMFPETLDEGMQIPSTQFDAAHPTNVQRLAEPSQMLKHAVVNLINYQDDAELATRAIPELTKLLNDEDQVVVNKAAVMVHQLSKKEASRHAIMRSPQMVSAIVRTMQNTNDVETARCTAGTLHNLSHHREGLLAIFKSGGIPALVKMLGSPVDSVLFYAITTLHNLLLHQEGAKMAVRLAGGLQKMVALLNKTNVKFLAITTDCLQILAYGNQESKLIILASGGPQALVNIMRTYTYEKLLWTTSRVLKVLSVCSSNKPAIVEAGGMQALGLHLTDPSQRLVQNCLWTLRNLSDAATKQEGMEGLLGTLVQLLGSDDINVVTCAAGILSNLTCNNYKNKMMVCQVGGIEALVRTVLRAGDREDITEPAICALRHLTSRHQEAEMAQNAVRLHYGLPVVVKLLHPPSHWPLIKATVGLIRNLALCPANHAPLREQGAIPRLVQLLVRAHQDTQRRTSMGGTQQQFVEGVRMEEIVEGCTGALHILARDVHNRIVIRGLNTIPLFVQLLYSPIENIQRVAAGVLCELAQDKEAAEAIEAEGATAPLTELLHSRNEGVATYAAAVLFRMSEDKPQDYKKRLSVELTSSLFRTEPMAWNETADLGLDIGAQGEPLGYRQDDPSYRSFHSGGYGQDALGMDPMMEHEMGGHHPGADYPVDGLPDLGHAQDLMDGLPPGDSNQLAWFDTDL
# Results are given in words; binding and its absence hold for the method and conditions named. In cells and extracts the contact can be indirect. A yes stands for co-enrichment or nearness to the bait. Other partners may have been found. Where a sequence is shown, tags or fusion partners need not be part of it.
# Molecular target: T1, GFP-RNF138 (UniProt Q8WVD3)
# T1 sequence: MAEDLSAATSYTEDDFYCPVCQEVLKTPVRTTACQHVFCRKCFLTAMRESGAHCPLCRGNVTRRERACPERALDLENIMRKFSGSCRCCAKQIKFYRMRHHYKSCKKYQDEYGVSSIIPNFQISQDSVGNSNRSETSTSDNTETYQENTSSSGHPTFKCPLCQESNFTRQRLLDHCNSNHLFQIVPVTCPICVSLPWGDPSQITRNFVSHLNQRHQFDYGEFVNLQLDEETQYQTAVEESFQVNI
# Experiment: affinity purification with mass spectrometry; co-immunoprecipitation of RNF138 followed by mass spectrometry (Co-IP/MS); bait construct and cells not told for this experiment
substance,measurement,value
β-catenin (from UniProt P35222 1-781),binding,binds
